In this test the target is T1, Flag-tagged human Viperin (human) (UniProt Q8WXG1).
T1 sequence: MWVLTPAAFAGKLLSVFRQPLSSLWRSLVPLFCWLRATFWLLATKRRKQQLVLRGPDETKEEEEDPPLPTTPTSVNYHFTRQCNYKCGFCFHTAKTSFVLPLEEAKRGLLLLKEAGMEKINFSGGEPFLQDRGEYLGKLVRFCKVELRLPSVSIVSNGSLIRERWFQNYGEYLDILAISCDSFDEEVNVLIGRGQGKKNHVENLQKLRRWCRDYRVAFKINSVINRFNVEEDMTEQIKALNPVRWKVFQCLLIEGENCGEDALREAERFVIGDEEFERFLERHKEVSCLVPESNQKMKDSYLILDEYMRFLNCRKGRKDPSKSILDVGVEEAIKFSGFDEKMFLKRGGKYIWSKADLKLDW
The experiment in a line: affinity purification with mass spectrometry; HEK293T cells transfected with empty vector or Flag-Viperin, 48 h; NP-40 lysis buffer (150 mM NaCl, 20 mM Tris-HCl pH 7.4, 1% NP-40, 0.5 mM EDTA); Flag-Viperin pulled down with M2 affinity gel; gel bands analysed by Orbitrap Elite.

The chains behind the UniProt entries cited, without tags or fusion partners.
UniProt O95071: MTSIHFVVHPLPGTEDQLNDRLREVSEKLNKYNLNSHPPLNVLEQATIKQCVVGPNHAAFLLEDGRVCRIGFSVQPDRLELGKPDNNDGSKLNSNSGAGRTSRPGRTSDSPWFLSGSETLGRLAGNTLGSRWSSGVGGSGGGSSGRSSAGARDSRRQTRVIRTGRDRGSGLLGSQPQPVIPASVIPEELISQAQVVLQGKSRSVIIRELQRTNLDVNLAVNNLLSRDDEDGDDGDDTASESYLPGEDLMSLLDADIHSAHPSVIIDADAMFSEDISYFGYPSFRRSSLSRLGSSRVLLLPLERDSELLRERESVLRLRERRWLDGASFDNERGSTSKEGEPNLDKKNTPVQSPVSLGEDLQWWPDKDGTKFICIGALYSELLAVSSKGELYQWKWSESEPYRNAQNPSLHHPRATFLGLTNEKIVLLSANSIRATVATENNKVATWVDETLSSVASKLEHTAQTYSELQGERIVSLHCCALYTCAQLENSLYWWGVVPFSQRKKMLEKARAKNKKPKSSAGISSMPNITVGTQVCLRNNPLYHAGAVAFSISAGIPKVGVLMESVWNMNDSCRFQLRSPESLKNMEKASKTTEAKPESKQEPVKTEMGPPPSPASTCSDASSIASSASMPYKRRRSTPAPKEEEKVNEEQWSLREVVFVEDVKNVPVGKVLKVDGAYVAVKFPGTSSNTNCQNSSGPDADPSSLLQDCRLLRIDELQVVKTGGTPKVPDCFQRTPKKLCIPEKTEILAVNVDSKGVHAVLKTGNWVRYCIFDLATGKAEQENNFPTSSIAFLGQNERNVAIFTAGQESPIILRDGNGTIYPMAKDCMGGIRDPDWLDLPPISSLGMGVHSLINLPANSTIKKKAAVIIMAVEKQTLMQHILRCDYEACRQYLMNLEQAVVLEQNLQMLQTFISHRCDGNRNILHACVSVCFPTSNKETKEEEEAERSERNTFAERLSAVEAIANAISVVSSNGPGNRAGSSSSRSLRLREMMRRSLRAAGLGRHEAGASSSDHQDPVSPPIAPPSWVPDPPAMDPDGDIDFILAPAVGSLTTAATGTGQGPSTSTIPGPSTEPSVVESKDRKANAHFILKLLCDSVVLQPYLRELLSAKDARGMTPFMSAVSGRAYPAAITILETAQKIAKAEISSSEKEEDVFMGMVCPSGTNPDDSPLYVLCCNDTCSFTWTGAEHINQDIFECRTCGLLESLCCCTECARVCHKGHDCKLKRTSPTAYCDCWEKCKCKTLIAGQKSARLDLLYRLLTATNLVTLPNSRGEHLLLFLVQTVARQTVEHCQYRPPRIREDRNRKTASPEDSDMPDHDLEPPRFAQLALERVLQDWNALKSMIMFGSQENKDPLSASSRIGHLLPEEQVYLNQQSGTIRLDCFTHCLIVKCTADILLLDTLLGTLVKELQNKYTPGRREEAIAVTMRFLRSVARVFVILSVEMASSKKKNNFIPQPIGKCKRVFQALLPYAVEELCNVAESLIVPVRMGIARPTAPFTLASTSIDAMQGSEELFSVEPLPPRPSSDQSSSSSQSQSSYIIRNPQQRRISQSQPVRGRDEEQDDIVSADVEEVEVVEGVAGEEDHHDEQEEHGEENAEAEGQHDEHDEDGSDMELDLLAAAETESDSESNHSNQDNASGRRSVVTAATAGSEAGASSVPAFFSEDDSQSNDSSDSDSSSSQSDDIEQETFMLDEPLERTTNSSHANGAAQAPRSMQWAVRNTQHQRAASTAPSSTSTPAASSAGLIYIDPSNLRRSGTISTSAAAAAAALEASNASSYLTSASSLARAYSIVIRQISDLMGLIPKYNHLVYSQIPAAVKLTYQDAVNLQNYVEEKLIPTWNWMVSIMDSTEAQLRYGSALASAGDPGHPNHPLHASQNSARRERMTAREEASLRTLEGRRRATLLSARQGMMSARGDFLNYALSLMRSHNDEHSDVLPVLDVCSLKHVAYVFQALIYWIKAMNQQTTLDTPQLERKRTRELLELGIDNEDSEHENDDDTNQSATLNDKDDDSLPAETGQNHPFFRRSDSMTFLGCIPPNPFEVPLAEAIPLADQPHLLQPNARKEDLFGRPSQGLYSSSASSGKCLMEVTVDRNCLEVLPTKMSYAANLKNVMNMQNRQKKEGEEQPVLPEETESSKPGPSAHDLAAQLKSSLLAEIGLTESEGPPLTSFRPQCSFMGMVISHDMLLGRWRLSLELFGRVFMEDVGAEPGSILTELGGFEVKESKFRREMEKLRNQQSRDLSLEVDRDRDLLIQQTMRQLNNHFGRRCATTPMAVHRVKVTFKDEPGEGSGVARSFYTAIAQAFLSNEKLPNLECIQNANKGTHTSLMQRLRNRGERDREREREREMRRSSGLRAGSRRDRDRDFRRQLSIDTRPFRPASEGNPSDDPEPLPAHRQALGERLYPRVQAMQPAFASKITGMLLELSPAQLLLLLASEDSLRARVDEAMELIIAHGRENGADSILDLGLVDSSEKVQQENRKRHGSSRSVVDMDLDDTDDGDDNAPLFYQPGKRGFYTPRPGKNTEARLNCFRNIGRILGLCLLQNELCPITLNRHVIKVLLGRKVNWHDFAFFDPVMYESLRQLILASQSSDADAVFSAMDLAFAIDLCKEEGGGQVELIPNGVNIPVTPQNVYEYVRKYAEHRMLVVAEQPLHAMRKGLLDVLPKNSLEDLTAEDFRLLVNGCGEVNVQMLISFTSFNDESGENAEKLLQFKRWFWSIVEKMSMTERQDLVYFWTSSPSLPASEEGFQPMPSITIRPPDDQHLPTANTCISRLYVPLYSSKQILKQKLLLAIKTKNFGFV
UniProt P42224: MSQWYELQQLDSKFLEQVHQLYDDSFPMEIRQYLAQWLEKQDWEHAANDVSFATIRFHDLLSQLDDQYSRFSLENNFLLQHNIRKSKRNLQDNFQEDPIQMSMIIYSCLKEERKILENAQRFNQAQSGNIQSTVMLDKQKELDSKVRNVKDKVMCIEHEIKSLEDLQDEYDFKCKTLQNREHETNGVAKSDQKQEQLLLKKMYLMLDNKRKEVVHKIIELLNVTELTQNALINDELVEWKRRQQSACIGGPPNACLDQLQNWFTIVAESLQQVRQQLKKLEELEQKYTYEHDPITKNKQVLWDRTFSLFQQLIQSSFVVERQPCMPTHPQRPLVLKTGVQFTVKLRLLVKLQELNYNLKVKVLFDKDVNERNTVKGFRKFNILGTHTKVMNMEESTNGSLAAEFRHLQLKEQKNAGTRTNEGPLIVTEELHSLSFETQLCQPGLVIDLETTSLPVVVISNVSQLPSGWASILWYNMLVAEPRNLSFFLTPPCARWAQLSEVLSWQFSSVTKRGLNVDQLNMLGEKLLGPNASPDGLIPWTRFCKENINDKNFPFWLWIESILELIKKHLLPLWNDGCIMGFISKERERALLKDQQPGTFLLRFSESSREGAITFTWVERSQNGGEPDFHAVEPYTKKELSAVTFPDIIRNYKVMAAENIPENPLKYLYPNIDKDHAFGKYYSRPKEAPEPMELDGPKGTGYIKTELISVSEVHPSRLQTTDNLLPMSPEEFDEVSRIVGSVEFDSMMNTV

No constants are given. Whether binding was seen depends on the method and setting. In cells and extracts the contact can be indirect. Here binding means that the protein was enriched with, or labelled near, the bait; the list need not be complete. Where a sequence is shown, tags or fusion partners need not be part of it.

With “UBR5 (endogenous, HEK293T) (from UniProt O95071 1-2799) (enzyme)”, the binding entry was “binds”. For “STAT1 (endogenous, HEK293T) (from UniProt P42224 1-750)” the value was “binds”.

Values taken from paper PMC11977219.
